# From patent US20140329863A1 (priority 2011, published 2014)
# Key:
# [1] = system: PrP^Sc in dividing ScN2a-cl3 cells; assay type: cell-based, mouse; conditions: FDA-approved drugs, ScN2a-c13 assay, read-out: Potency (μM) ELISA (EC50)
# [2] = system: N2a-cl3 cells
structure (smiles),measurement,setting,value
Clc1ccc2c(c1)CCc1cccnc1C2=C1CCNCC1 [Desloratidine],EC50,[1],6.66 µM
same,Potency (μM) Cell Viability,[2],9.561 µM
